Experimental data reported in paper PMC4770304.
Results are given in words; binding and its absence hold for the method and conditions named. Binding seen in cells or lysates may run through a third protein. A yes stands for co-enrichment or nearness to the bait. Other partners may have been found.

The chains behind the UniProt entries cited, without tags or fusion partners.
UniProt Q27J81: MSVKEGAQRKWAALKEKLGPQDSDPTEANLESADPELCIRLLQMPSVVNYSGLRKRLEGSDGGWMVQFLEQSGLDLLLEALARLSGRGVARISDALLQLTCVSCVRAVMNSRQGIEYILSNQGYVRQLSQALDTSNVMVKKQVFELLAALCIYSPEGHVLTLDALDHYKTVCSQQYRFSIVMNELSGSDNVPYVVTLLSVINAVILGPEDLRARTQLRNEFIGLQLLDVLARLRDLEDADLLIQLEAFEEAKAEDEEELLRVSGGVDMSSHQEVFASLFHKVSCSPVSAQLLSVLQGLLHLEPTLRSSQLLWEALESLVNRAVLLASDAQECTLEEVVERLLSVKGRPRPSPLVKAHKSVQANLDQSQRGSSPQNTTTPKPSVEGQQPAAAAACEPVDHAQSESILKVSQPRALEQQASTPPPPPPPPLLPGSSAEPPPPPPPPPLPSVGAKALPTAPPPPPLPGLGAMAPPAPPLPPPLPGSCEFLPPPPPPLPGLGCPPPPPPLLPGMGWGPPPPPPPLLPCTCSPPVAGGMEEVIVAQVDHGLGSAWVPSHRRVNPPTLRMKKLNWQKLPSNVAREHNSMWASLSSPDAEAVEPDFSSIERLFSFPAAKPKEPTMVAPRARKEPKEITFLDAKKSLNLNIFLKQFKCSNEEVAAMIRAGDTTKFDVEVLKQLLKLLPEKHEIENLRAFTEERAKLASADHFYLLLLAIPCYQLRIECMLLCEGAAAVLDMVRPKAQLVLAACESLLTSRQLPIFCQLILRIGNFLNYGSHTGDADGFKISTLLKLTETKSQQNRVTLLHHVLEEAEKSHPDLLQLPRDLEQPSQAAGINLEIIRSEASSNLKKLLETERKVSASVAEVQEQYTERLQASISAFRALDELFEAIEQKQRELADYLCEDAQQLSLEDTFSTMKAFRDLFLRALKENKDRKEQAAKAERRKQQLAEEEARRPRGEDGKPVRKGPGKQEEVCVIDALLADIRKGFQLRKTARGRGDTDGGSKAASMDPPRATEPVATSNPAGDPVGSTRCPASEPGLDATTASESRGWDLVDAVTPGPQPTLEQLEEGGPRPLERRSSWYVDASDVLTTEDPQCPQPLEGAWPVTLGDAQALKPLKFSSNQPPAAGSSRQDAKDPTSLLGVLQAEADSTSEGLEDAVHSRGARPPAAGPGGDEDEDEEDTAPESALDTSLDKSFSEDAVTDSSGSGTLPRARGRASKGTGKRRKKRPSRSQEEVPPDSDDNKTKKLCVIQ
UniProt P35080: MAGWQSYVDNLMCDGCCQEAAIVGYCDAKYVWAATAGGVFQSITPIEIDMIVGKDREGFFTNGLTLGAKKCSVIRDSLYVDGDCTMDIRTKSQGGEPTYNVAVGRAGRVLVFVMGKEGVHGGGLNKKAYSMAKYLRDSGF

Target: GFP–INF2 (wild type) expressed in human podocytes (UniProt Q27J81)
Test: affinity purification with mass spectrometry; GFP-Trap from lysates of differentiated human podocytes transduced with GFP–INF2 or GFP lentivirus; SDS/PAGE, in-gel tryptic digestion, LC–MS/MS (Orbitrap Velos)

profilin 2 (from UniProt P35080 1-140)
binding: binds
